These are yes or no findings as the source states them, for the method shown. Where a sequence is shown, tags or fusion partners need not be part of it.
Target: cytosine monophosphate kinase (CMPK) from E. coli, wild type with attached His-tag (E. coli) (UniProt P0A6I0)
Assay: SEC; analytical gel filtration of purified His-tagged wild-type CMPK; low salt concentrations; both purified

binding: no binding
B1: cytosine monophosphate kinase (CMPK) from E. coli, wild type with attached His-tag (enzyme, UniProt P0A6I0 1-227)
chain: MTAIAPVITIDGPSGAGKGTLCKAMAEALQWHLLDSGAIYRVLALAALHHHVDVASEDALVPLASHLDVRFVSTNGNLEVILEGEDVSGEIRTQEVANAASQVAAFPRVREALLRRQRAFRELPGLIADGRDMGTVVFPDAPVKIFLDASSEERAHRRMLQLQEKGFSVNFERLLAEIKERDDRDRNRAVAPLVPAADALVLDSTTLSIEQVIEKALQYARQKLALA

From article PMC3813627
